Reference: patent publication US10865191B2, “Heterocyclic compounds useful as modulators of TNF alpha” (BRISTOL-MYERS SQUIBB COMPANY, priority 2015, dated 2020)
Read-outs that look alike come from different tables or passages of the source. Some entries share one result that the patent states for a list of compounds.

The chains behind the UniProt entries cited, without tags or fusion partners. Residues count along the entry.
UniProt P01375, 77-233 limits assumed: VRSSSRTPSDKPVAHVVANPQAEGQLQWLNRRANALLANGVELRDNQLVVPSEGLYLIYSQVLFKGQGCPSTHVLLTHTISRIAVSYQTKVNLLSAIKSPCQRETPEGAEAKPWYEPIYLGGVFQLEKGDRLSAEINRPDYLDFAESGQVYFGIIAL

Target: TNFα (Homo sapiens, UniProt P01375)
Assay: TNF induced HEK-Blue assay (NF-kB-driven secreted alkaline phosphatase reporter)
Type: cell-based
Description: TNF or CD40L-Induced HEK-Blue Assay
Test compounds serially diluted in DMSO were plated in an assay plate (LABCYTE, Cat. # LP-0200) at final concentrations ranging from 0.004 μM to 25 μM. TNFα (final concentration 0.5 ng/mL) or CD40L (final concentration 30 ng/mL) in assay buffer [DMEM, 4.5 g/l glucose (Gibco, Cat. 21063-029), 10% FBS (Sigma, F4135), 1% Penicillin-Streptomycin (Gibco, Cat. 15140-122), 1% Anti-Anti (Gibco, Cat. 15240-112) and 2 mM L-glutamine (Gibco, Cat. 25030-081)] was then added to the assay plate. After a 30 minute pre-incubation at 37° C. and 5% CO2, HEK-Blue™-CD40L cells (INVIVOGEN, Cat. Code hkb-cd40) containing a NF-kB-driven secreted alkaline phosphatase reporter gene were seeded into the assay plate at a density of 20,000 cells per well. This plate was then incubated for 18 h at 37° C. and 5% CO2. Secreted alkaline phosphatase expression was measured using QUANTI-Blue™ (INVIVOGEN, Cat. Code rep-qb1) according to manufacturer's specifications and the assay plate was read on a PerkinElmer Envision at 620 nm.
Inhibition data for the test compound over a range of concentrations was plotted as percentage inhibition of the test compound (100%=maximum inhibition). IC50 values were determined after correcting for background [(sample read-mean of low control)/(mean of high control-mean of low control)] where by the low control is DMSO without stimulation and high control is DMSO with stimulation. The IC50 is defined as the concentration of test compound which produces 50% inhibition and was quantified using the 4 parameter logistic equation to fit the data.

[1] = TNFα 0.5 ng/mL, HEK-Blue-CD40L cells, 18 h; read-out: IC50 values measured in the TNF induced HEK-Blue assay
[2] = read-out: IC50 values measured in the TNF induced HEK-Blue assay; TNFα 0.5 ng/mL, HEK-Blue-CD40L cells, 18 h

SMILES | IC50 [1] | IC50 [2]
C[C@@H](Nc1c(Cl)cnc2ccc(-c3cnc(C4(O)CCC(=O)CC4)nc3)cc12)c1ccccc1F [Example 114, (R)-4-(5-(3-chloro-4-((1-(2-fluorophenyl)ethyl)amino)quinolin-6-yl)pyrimidin-2-yl)-4-hydroxycyclohexanone] | ≤ 25 µM | –
Cc1nc2ccc(-c3cnc(C(C)(C)O)nc3)cc2c(N[C@H](C)c2cc(C(C)O)ccc2F)c1Cl (mixture of isomers) [Example 433, 2-(5-(3-chloro-4-(((1R)-1-(2-fluoro-5-(1-hydroxyethyl)phenyl)ethyl)amino)-2-methylquinolin-6-yl)pyrimidin-2-yl)propan-2-ol] | ≤ 25 µM | –
CC(Nc1c(Cl)cnc2cc(F)c(-c3cnc(C(O)CO)nc3)cc12)c1ccccc1F (racemic) [Example 300, 1-(5-(3-chloro-7-fluoro-4-((1-(2-fluorophenyl)ethyl)amino)quinolin-6-yl)pyrimidin-2-yl)ethane-1,2-diol] | ≤ 25 µM | –
CC(C)(O)c1ncc(-c2nc3c(NC(c4ccccc4)C(F)F)c(Cl)cnc3cc2F)cn1 (racemic) [Example 212, 2-(5-(7-chloro-8-((2,2-difluoro-1-phenylethyl)amino)-3-fluoro-1,5-naphthyridin-2-yl)pyrimidin-2-yl)propan-2-ol] | ≤ 25 µM | –
C[C@@H](Nc1c(Cl)cnc2ccc(Cl)cc12)c1cc(-c2cncnc2)ccc1F [Example 545, (R)-3,6-dichloro-N-(1-(2-fluoro-5-(pyrimidin-5-yl)phenyl)ethyl)quinolin-4-amine] | ≤ 25 µM | –
Cc1nc2cc(F)c(-c3cnc(C(C)(C)O)nc3)nc2c(N[C@H](C)c2cc(C#N)ccc2F)c1Cl [Example 586, (R)-3-(1-((3-chloro-7-fluoro-6-(2-(2-hydroxypropan-2-yl)pyrimidin-5-yl)-2-methyl-1,5-naphthyridin-4-yl)amino)ethyl)-4-fluorobenzonitrile] | – | ≤ 25 µM
CCC(Nc1c(Cl)cnc2ccc(-c3cnc(C(C)(C)O)nc3)cc12)c1nc(Br)ccc1F (racemic) [Example 64, 2-(5-(4-((1-(6-bromo-3-fluoropyridin-2-yl)propyl)amino)-3-chloroquinolin-6-yl)pyrimidin-2-yl)propan-2-ol] | ≤ 25 µM | –
CC(Nc1c(Cl)cnc2cc(F)c(-c3cnc(C4(O)CCC(C(=O)O)CC4)nc3)cc12)c1ccccc1F (stereo not drawn) [Example 295, 4-(5-(3-chloro-7-fluoro-4-((1-(2-fluorophenyl)ethyl)amino)quinolin-6-yl)pyrimidin-2-yl)-4-hydroxycyclohexane-1-carboxylic acid] | ≤ 25 µM | –
CCC(Nc1c(Cl)cnc2ccc(-c3cnc(C(C)(C)O)nc3)cc12)c1nc(C(O)CO)ccc1F (stereo not drawn) [Example 127, 1-(6-(1-((3-chloro-6-(2-(2-hydroxypropan-2-yl)pyrimidin-5-yl)quinolin-4-yl)amino)propyl)-5-fluoropyridin-2-yl)ethane-1,2-diol] | ≤ 25 µM | –
Cc1nc2ccc(-c3cnc(C(C)(C)O)nc3)cc2c(N[C@H](C)c2cc(C#N)ccc2F)c1C [Example 314, (R)-4-fluoro-3-(1-((6-(2-(2-hydroxypropan-2-yl)pyrimidin-5-yl)-2,3-dimethylquinolin-4-yl)amino)ethyl)benzonitrile] | ≤ 25 µM | –
CC(C)CC(C)Nc1c(Cl)cnc2ccc(-c3cnc(C(C)(C)O)nc3)cc12 (racemic) [Example 135, 2-(5-(3-chloro-4-((4-methylpentan-2-yl)amino)quinolin-6-yl)pyrimidin-2-yl)propan-2-ol] | ≤ 25 µM | –
Cc1nc2ccc(-c3cnc(C(C)(C)O)nc3)cc2c(N[C@H](C)c2cc(-n3cccn3)ccc2F)c1Cl [Example 365, (R)-2-(5-(3-chloro-4-((1-(2-fluoro-5-(1H-pyrazol-1-yl)phenyl)ethyl)amino)-2-methylquinolin-6-yl)pyrimidin-2-yl)propan-2-ol] | ≤ 25 µM | –
Cc1ccc(C)c(Nc2c(Cl)c(CN=[N+]=[N-])nc3ccc(-c4ccc(C#N)nc4)cc23)c1 [Example 42, 5-(2-(azidomethyl)-3-chloro-4-((2,5-dimethylphenyl)amino)quinolin-6-yl)picolinonitrile] | ≤ 25 µM | –
Cc1ccncc1-c1ccc(F)c([C@@H](C)Nc2c(Cl)cnc3ccccc23)c1 [Example 529, (R)-3-chloro-N-(1-(2-fluoro-5-(4-methylpyridin-3-yl)phenyl)ethyl)quinolin-4-amine] | ≤ 25 µM | –
CC[C@H](Nc1c(Cl)cnc2ccccc12)c1cc(-c2cncnc2)ccc1F [Example 557, (S)-3-chloro-N-(1-(2-fluoro-5-(pyrimidin-5-yl)phenyl)propyl)quinolin-4-amine] | ≤ 25 µM | –
C[C@@H](Nc1c(Cl)c(C(=O)Nc2cccnc2)nc2ccc(-c3cnc(C(C)(C)O)nc3)cc12)c1cc(C(N)=O)ccc1F [Example 395, (R)-4-((1-(5-carbamoyl-2-fluorophenyl)ethyl)amino)-3-chloro-6-(2-(2-hydroxypropan-2-yl)pyrimidin-5-yl)-N-(pyridin-3-yl)quinoline-2-carboxamide] | ≤ 25 µM | –
C[C@@H](Nc1c(Cl)cnc2ccc(-c3cnc(C(C)(C)O)nc3)cc12)c1cc(-c2ncn[nH]2)ccc1F [Example 414, (R)-2-(5-(3-chloro-4-((1-(2-fluoro-5-(1H-1,2,4-triazol-5-yl)phenyl)ethyl)amino)quinolin-6-yl)pyrimidin-2-yl)propan-2-ol] | ≤ 25 µM | –
C=Cc1cccc([C@@H](C)Nc2c(Cl)cnc3cc(F)c(-c4cnc(C(C)(C)O)nc4)nc23)c1 [Example 574, (R)-2-(5-(7-chloro-3-fluoro-8-((1-(3-vinylphenyl)ethyl)amino)-1,5-naphthyridin-2-yl)pyrimidin-2-yl)propan-2-ol] | ≤ 25 µM | –
CC(Nc1c(Cl)c(N)nc2ccc(-c3cnc(N4CCN(CC(=O)O)CC4)nc3)cc12)c1ccccc1F (stereo not drawn) [Example 46, 2-(4-(5-(2-amino-3-chloro-4-((1-(2-fluorophenyl)ethyl)amino)quinolin-6-yl)pyrimidin-2-yl)piperazin-1-yl) acetic acid] | ≤ 25 µM | –
CC(Nc1c(Cl)cnc2cc(F)c(-c3cnc(N4CCC(O)C4)cn3)cc12)c1ccccc1F (stereo not drawn) [Example 284, 1-(5-(3-chloro-7-fluoro-4-((1-(2-fluorophenyl)ethyl)amino)quinolin-6-yl)pyrazin-2-yl)pyrrolidin-3-ol] | ≤ 25 µM | –
Cc1nc2c(F)cc(-c3cnc(C(C)(C)O)nc3)cc2c(NC(C)c2ccccc2)c1Cl (stereo not drawn) [Example 306, 2-(5-(3-chloro-8-fluoro-2-methyl-4-((1-phenylethyl)amino)quinolin-6-yl)pyrimidin-2-yl)propan-2-ol] | ≤ 25 µM | –
Cc1nc2c(F)cc(-c3cnc(C(C)(C)O)nc3)cc2c(NC(C)c2ccccc2F)c1Cl (racemic) [Example 298, 2-(5-(3-chloro-8-fluoro-4-((1-(2-fluorophenyl)ethyl)amino)-2-methylquinolin-6-yl)pyrimidin-2-yl)propan-2-ol] | ≤ 25 µM | –
C[C@H](Nc1c(Cl)cnc2cnc(-c3cnc(C(C)(C)O)nc3)cc12)c1ccccc1F (single isomer, unassigned) [Example 234] | – | ≤ 25 µM
C[C@@H](Nc1c(Cl)cnc2ccccc12)c1cc(-c2ccccc2N)ccc1F [Example 547, (R)—N-(1-(2′-amino-4-fluoro-[1,1′-biphenyl]-3-yl)ethyl)-3-chloroquinolin-4-amine] | ≤ 25 µM | –
